# Measured values as given in patent US12710427B2, “Anti-human neurotensin receptor 1 antibody and use thereof” (National Health Research Institutes, priority 2020, dated 2026).
# Some results were stated once for a whole list of compounds, not compound by compound.
# System: cyclic ECL2 peptide of NTSR1
# Experiment: NTSR1-binding affinity ELISA (alanine scanning variants)
# Design: species or system human
# Conditions: alanine scanning of CDR H1 and CDR H2 of h7C3-2
# Description: The NTSR1-binding capacity of different antibodies were measured by ELISA. Briefly, NeutrAvidin 96-well plates (Pierce Cat:15128) were coated with cyL2-Biotin peptides at a final concentration of 5 μg/ml at […]. On the following day, the coating solution was removed, and the plates were blocked with 5% (v/v) non-fat dry milk in phosphate buffer saline (PBS) for 1 hour. After washing with PBST, gradient concentrations of anti-NTSR1 antibodies were added in triplicate. After 1 hour of incubation, the plate was washed three times with PBST, followed by the addition of horseradish peroxidase (HRP)-conjugated goat anti-human IgG Fc antibody (100 μL) into each well for an additional hour at RT. Finally, 100 μL of tetramethylbenzidine (TMB) substrate was added into each well to produce color for visualization. After 2 minutes of incubation, 100 μL of 2M H2SO4 was used to stop the reaction. The absorbance of each well was read at 450 nm with a plate reader. Flow cytometry
Molecule,retained h7C3-2 binding activity [%],decrease of apparent affinity of h7C3-2 for the peptide [%]
"F29A: h7C3-2 variant, F29A in CDR H1 (antibody, V domains shown) VH: QVQLQQPGSVLVRPGASVKLSCKASGYTATSSWIHWAKQRPGQGLEWIGQIRPNSGNTYYNEKFKVKATLTVDTSSSTAYVDLSSLTSEDSAVYYCARYHYGFDYWGQGTLVTVSS VL: DVLMTQTPLSLPVSLGDQASISCRSSQSIVHSNGNTYLEWYLQKPGQSPKLLIYKVSNRFSGVPDRFSGSGSGTDFTLKISRVEAEDLGVYYCFQGAHLPWTFGGGTKLEIKR",> 80,
"T30A: h7C3-2 variant, T30A in CDR H1 (antibody, V domains shown) VH: QVQLQQPGSVLVRPGASVKLSCKASGYTFASSWIHWAKQRPGQGLEWIGQIRPNSGNTYYNEKFKVKATLTVDTSSSTAYVDLSSLTSEDSAVYYCARYHYGFDYWGQGTLVTVSS VL: DVLMTQTPLSLPVSLGDQASISCRSSQSIVHSNGNTYLEWYLQKPGQSPKLLIYKVSNRFSGVPDRFSGSGSGTDFTLKISRVEAEDLGVYYCFQGAHLPWTFGGGTKLEIKR",> 80,
"S31A: h7C3-2 variant, S31A in CDR H1 (antibody, V domains shown) VH: QVQLQQPGSVLVRPGASVKLSCKASGYTFTASWIHWAKQRPGQGLEWIGQIRPNSGNTYYNEKFKVKATLTVDTSSSTAYVDLSSLTSEDSAVYYCARYHYGFDYWGQGTLVTVSS VL: DVLMTQTPLSLPVSLGDQASISCRSSQSIVHSNGNTYLEWYLQKPGQSPKLLIYKVSNRFSGVPDRFSGSGSGTDFTLKISRVEAEDLGVYYCFQGAHLPWTFGGGTKLEIKR",> 80,
"S32A: h7C3-2 variant, S32A in CDR H1 (antibody, V domains shown) VH: QVQLQQPGSVLVRPGASVKLSCKASGYTFTSAWIHWAKQRPGQGLEWIGQIRPNSGNTYYNEKFKVKATLTVDTSSSTAYVDLSSLTSEDSAVYYCARYHYGFDYWGQGTLVTVSS VL: DVLMTQTPLSLPVSLGDQASISCRSSQSIVHSNGNTYLEWYLQKPGQSPKLLIYKVSNRFSGVPDRFSGSGSGTDFTLKISRVEAEDLGVYYCFQGAHLPWTFGGGTKLEIKR",> 80,
"I51A: h7C3-2 variant, I51A in CDR H2 (antibody, V domains shown) VH: QVQLQQPGSVLVRPGASVKLSCKASGYTFTSSWIHWAKQRPGQGLEWIGQARPNSGNTYYNEKFKVKATLTVDTSSSTAYVDLSSLTSEDSAVYYCARYHYGFDYWGQGTLVTVSS VL: DVLMTQTPLSLPVSLGDQASISCRSSQSIVHSNGNTYLEWYLQKPGQSPKLLIYKVSNRFSGVPDRFSGSGSGTDFTLKISRVEAEDLGVYYCFQGAHLPWTFGGGTKLEIKR",> 80,
"P53A: h7C3-2 variant, P53A in CDR H2 (antibody, V domains shown) VH: QVQLQQPGSVLVRPGASVKLSCKASGYTFTSSWIHWAKQRPGQGLEWIGQIRANSGNTYYNEKFKVKATLTVDTSSSTAYVDLSSLTSEDSAVYYCARYHYGFDYWGQGTLVTVSS VL: DVLMTQTPLSLPVSLGDQASISCRSSQSIVHSNGNTYLEWYLQKPGQSPKLLIYKVSNRFSGVPDRFSGSGSGTDFTLKISRVEAEDLGVYYCFQGAHLPWTFGGGTKLEIKR",> 80,
"N54A: h7C3-2 variant, N54A in CDR H2 (antibody, V domains shown) VH: QVQLQQPGSVLVRPGASVKLSCKASGYTFTSSWIHWAKQRPGQGLEWIGQIRPASGNTYYNEKFKVKATLTVDTSSSTAYVDLSSLTSEDSAVYYCARYHYGFDYWGQGTLVTVSS VL: DVLMTQTPLSLPVSLGDQASISCRSSQSIVHSNGNTYLEWYLQKPGQSPKLLIYKVSNRFSGVPDRFSGSGSGTDFTLKISRVEAEDLGVYYCFQGAHLPWTFGGGTKLEIKR",> 80,
"S55A: h7C3-2 variant, S55A in CDR H2 (antibody, V domains shown) VH: QVQLQQPGSVLVRPGASVKLSCKASGYTFTSSWIHWAKQRPGQGLEWIGQIRPNAGNTYYNEKFKVKATLTVDTSSSTAYVDLSSLTSEDSAVYYCARYHYGFDYWGQGTLVTVSS VL: DVLMTQTPLSLPVSLGDQASISCRSSQSIVHSNGNTYLEWYLQKPGQSPKLLIYKVSNRFSGVPDRFSGSGSGTDFTLKISRVEAEDLGVYYCFQGAHLPWTFGGGTKLEIKR",> 80,
"G56A: h7C3-2 variant, G56A in CDR H2 (antibody, V domains shown) VH: QVQLQQPGSVLVRPGASVKLSCKASGYTFTSSWIHWAKQRPGQGLEWIGQIRPNSANTYYNEKFKVKATLTVDTSSSTAYVDLSSLTSEDSAVYYCARYHYGFDYWGQGTLVTVSS VL: DVLMTQTPLSLPVSLGDQASISCRSSQSIVHSNGNTYLEWYLQKPGQSPKLLIYKVSNRFSGVPDRFSGSGSGTDFTLKISRVEAEDLGVYYCFQGAHLPWTFGGGTKLEIKR",> 80,
"N57A: h7C3-2 variant, N57A in CDR H2 (antibody, V domains shown) VH: QVQLQQPGSVLVRPGASVKLSCKASGYTFTSSWIHWAKQRPGQGLEWIGQIRPNSGATYYNEKFKVKATLTVDTSSSTAYVDLSSLTSEDSAVYYCARYHYGFDYWGQGTLVTVSS VL: DVLMTQTPLSLPVSLGDQASISCRSSQSIVHSNGNTYLEWYLQKPGQSPKLLIYKVSNRFSGVPDRFSGSGSGTDFTLKISRVEAEDLGVYYCFQGAHLPWTFGGGTKLEIKR",> 80,
"G26A: h7C3-2 variant, G26A in CDR H1 (antibody, V domains shown) VH: QVQLQQPGSVLVRPGASVKLSCKASAYTFTSSWIHWAKQRPGQGLEWIGQIRPNSGNTYYNEKFKVKATLTVDTSSSTAYVDLSSLTSEDSAVYYCARYHYGFDYWGQGTLVTVSS VL: DVLMTQTPLSLPVSLGDQASISCRSSQSIVHSNGNTYLEWYLQKPGQSPKLLIYKVSNRFSGVPDRFSGSGSGTDFTLKISRVEAEDLGVYYCFQGAHLPWTFGGGTKLEIKR",,≥ 50
"T58A: h7C3-2 variant, T58A in CDR H2 (antibody, V domains shown) VH: QVQLQQPGSVLVRPGASVKLSCKASGYTFTSSWIHWAKQRPGQGLEWIGQIRPNSGNAYYNEKFKVKATLTVDTSSSTAYVDLSSLTSEDSAVYYCARYHYGFDYWGQGTLVTVSS VL: DVLMTQTPLSLPVSLGDQASISCRSSQSIVHSNGNTYLEWYLQKPGQSPKLLIYKVSNRFSGVPDRFSGSGSGTDFTLKISRVEAEDLGVYYCFQGAHLPWTFGGGTKLEIKR",> 80,
"Y60A: h7C3-2 variant, Y60A in CDR H2 (antibody, V domains shown) VH: QVQLQQPGSVLVRPGASVKLSCKASGYTFTSSWIHWAKQRPGQGLEWIGQIRPNSGNTYANEKFKVKATLTVDTSSSTAYVDLSSLTSEDSAVYYCARYHYGFDYWGQGTLVTVSS VL: DVLMTQTPLSLPVSLGDQASISCRSSQSIVHSNGNTYLEWYLQKPGQSPKLLIYKVSNRFSGVPDRFSGSGSGTDFTLKISRVEAEDLGVYYCFQGAHLPWTFGGGTKLEIKR",> 80,
"N61A: h7C3-2 variant, N61A in CDR H2 (antibody, V domains shown) VH: QVQLQQPGSVLVRPGASVKLSCKASGYTFTSSWIHWAKQRPGQGLEWIGQIRPNSGNTYYAEKFKVKATLTVDTSSSTAYVDLSSLTSEDSAVYYCARYHYGFDYWGQGTLVTVSS VL: DVLMTQTPLSLPVSLGDQASISCRSSQSIVHSNGNTYLEWYLQKPGQSPKLLIYKVSNRFSGVPDRFSGSGSGTDFTLKISRVEAEDLGVYYCFQGAHLPWTFGGGTKLEIKR",> 80,
"E62A: h7C3-2 variant, E62A in CDR H2 (antibody, V domains shown) VH: QVQLQQPGSVLVRPGASVKLSCKASGYTFTSSWIHWAKQRPGQGLEWIGQIRPNSGNTYYNAKFKVKATLTVDTSSSTAYVDLSSLTSEDSAVYYCARYHYGFDYWGQGTLVTVSS VL: DVLMTQTPLSLPVSLGDQASISCRSSQSIVHSNGNTYLEWYLQKPGQSPKLLIYKVSNRFSGVPDRFSGSGSGTDFTLKISRVEAEDLGVYYCFQGAHLPWTFGGGTKLEIKR",> 80,
"K63A: h7C3-2 variant, K63A in CDR H2 (antibody, V domains shown) VH: QVQLQQPGSVLVRPGASVKLSCKASGYTFTSSWIHWAKQRPGQGLEWIGQIRPNSGNTYYNEAFKVKATLTVDTSSSTAYVDLSSLTSEDSAVYYCARYHYGFDYWGQGTLVTVSS VL: DVLMTQTPLSLPVSLGDQASISCRSSQSIVHSNGNTYLEWYLQKPGQSPKLLIYKVSNRFSGVPDRFSGSGSGTDFTLKISRVEAEDLGVYYCFQGAHLPWTFGGGTKLEIKR",> 80,
"F64A: h7C3-2 variant, F64A in CDR H2 (antibody, V domains shown) VH: QVQLQQPGSVLVRPGASVKLSCKASGYTFTSSWIHWAKQRPGQGLEWIGQIRPNSGNTYYNEKAKVKATLTVDTSSSTAYVDLSSLTSEDSAVYYCARYHYGFDYWGQGTLVTVSS VL: DVLMTQTPLSLPVSLGDQASISCRSSQSIVHSNGNTYLEWYLQKPGQSPKLLIYKVSNRFSGVPDRFSGSGSGTDFTLKISRVEAEDLGVYYCFQGAHLPWTFGGGTKLEIKR",> 80,
"K65A: h7C3-2 variant, K65A in CDR H2 (antibody, V domains shown) VH: QVQLQQPGSVLVRPGASVKLSCKASGYTFTSSWIHWAKQRPGQGLEWIGQIRPNSGNTYYNEKFAVKATLTVDTSSSTAYVDLSSLTSEDSAVYYCARYHYGFDYWGQGTLVTVSS VL: DVLMTQTPLSLPVSLGDQASISCRSSQSIVHSNGNTYLEWYLQKPGQSPKLLIYKVSNRFSGVPDRFSGSGSGTDFTLKISRVEAEDLGVYYCFQGAHLPWTFGGGTKLEIKR",> 80,
